Measured values published in doi:10.1101/2024.09.20.614077.
Like-named read-outs stand apart in the source and are kept apart here. No constants are given. Whether binding was seen depends on the method and setting. In cells and extracts the contact can be indirect. Some results given as binding are weak or reduced against the parent protein; the word gives no strength. For some of these results: Where a sequence is shown, tags or fusion partners need not be part of it.

Sequences of proteins named here, by UniProt entry; tags and fusion partners are left off.
UniProt A2A9A2: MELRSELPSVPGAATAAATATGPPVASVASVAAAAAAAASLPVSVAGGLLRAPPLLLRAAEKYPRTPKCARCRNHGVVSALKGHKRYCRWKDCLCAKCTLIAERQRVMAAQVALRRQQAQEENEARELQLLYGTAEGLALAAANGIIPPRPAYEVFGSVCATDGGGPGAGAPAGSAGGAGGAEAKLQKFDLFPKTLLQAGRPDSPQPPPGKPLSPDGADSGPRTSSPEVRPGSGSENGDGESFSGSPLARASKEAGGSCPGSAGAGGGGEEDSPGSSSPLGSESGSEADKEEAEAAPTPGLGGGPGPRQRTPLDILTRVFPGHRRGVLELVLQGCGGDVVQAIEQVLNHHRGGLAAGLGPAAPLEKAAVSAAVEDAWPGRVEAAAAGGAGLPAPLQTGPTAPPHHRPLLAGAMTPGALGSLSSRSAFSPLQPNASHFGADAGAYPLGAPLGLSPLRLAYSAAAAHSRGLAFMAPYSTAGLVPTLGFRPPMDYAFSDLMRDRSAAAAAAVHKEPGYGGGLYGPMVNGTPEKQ
UniProt Q92769: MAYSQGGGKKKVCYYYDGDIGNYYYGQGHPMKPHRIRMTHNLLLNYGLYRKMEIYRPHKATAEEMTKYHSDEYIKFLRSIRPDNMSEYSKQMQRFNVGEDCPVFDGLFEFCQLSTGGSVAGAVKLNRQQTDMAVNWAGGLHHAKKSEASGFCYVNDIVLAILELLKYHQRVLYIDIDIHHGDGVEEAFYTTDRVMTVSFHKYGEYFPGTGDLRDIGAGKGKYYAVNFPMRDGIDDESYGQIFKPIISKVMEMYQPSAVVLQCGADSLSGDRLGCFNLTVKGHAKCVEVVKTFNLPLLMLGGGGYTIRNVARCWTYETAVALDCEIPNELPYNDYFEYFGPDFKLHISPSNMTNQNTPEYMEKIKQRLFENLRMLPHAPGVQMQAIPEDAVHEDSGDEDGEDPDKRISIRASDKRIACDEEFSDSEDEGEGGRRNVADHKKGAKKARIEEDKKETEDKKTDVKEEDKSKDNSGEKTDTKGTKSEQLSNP
UniProt Q13547: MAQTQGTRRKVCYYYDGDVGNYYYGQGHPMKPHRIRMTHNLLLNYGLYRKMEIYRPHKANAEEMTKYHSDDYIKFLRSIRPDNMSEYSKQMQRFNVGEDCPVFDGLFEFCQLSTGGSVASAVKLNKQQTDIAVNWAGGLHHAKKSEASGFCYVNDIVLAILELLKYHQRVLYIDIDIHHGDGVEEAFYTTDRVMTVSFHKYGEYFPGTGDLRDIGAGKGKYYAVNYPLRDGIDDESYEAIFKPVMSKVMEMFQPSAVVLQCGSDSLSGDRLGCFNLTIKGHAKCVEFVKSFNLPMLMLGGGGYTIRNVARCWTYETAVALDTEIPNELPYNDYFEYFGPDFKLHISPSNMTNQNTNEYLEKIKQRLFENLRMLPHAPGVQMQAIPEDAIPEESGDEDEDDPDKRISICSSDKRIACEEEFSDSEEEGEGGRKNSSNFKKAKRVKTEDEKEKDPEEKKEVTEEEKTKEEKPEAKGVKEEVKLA

B1: Zfp423 (pCDNA3-Myc-Zfp423) (protein, UniProt Q80TS5 1-1292)
chain: MSRRKQAKPRSVKVEEGEASDFSLAWDSSVAAAGGLEGEPECDRKTSRALEDRNSVTSQEERNEDDEDVEDESIYTCDHCQQDFESLADLTDHRAHRCPGDGDDDPQLSWVASSPSSKDVASPTQMIGDGCDLGLGEEEGGTGLPYPCQFCDKSFIRLSYLKRHEQIHSDKLPFKCTFCSRLFKHKRSRDRHIKLHTGDKKYHCHECEAAFSRSDHLKIHLKTHSSSKPFKCSVCKRGFSSTSSLQSHMQAHKKNKEHLAKSEKEAKKDDFMCDYCEDTFSQTEELEKHVLTLHPQLSEKADLQCIHCPEVFVDESTLLAHIHQAHANQKHKCPMCPEQFSSVEGVYCHLDSHRQPDSSNHSVSPDPVLGSVASMSSATPDSSASVERGSTPDSTLKPLRGQKKMRDDGQSWPKVVYSCPYCSKRDFTSLAVLEIHLKTIHADKPQQSHTCQICLDSMPTLYNLNEHVRKLHKSHAYPVMQFGNISAFHCNYCPEMFADINSLQEHIRVSHCGPNANPPDGNNAFFCNQCSMGFLTESSLTEHIQQAHCSVGSTKLESPVVQPTQSFMEVYSCPYCTNSPIFGSILKLTKHIKENHKNIPLAHSKKSKAEQSPVSSDVEVSSPKRQRLSGSANSISNGEYPCNQCDLKFSNFESFQTHLKLHLELLLRKQACPQCKEDFDSQESLLQHLTVHYMTTSTHYVCESCDKQFSSVDDLQKHLLDMHTFVLYHCTLCQEVFDSKVSIQVHLAVKHSNEKKMYRCTACNWDFRKEADLQVHVKHSHLGNPAKAHKCIFCGETFSTEVELQCHITTHSKKYNCRFCSKAFHAVILLEKHLREKHCVFDAAAENGTANGVPPTSTKKAEPADLQGMLLKNPEAPNSHEASEDDVDASEPMYGCDICGAAYTMEVLLQNHRLRDHNIRPGEDDGSRKKAEFIKGSHKCNVCSRTFFSENGLREHLQTHRGPAKHYMCPICGERFPSLLTLTEHKVTHSKSLDTGTCRICKMPLQSEEEFIEHCQMHPDLRNSLTGFRCVVCMQTVTSTLELKIHGTFHMQKLAGSSAASSPNGQGLQKLYKCALCLKEFRSKQDLVRLDVNGLPYGLCAGCMARSANGQVGGLAPPEPADRPCAGLRCPECNVKFESAEDLESHMQVDHRDLTPETSGPRKGAQTSPVPRKKTYQCIKCQMTFENEREIQIHVANHMIEEGINHECKLCNQMFDSPAKLLCHLIEHSFEGMGGTFKCPVCFTVFVQANKLQQHIFAVHGQEDKIYDCSQCPQKFFFQTELQNHTMSQHAQ

What was measured:
Test in all cases: co-IP
[1] = target: Flag-Dmrta2 (pCS2-Flag-mDmrta2) (mouse) (UniProt A2A9A2)
[2] = target: T1, Zfp423 (pCDNA3-Myc-Zfp423) (UniProt Q80TS5)
T1 sequence: B1 chain

[3] = target: Flag-Dmrta2 (pCS2-Flag-mDmrta2) (mouse) (UniProt A2A9A2); remark: listed apart in the source

Molecule	binding [1]	also measured
HDAC2 (HEK293T) (from UniProt Q92769 1-488)	binds	
HDAC1 (HEK293T) (from UniProt Q13547 1-482)	binds	
Flag-Dmrta2 (pCS2-Flag-mDmrta2) (from UniProt A2A9A2 1-531)		binding [2]: binds
B1		binding [3]: binds
